This note sets out measurements from the supplement of paper PMC10735217.

The test relates to HEK293A TEAD-LUC reporter. The test can be described thus: TEAD-luciferase reporter activity (YAP activation), robust Z score vs plate; higher = stronger YAP/TEAD activation. As to conditions: 24 h. (In general: A reporter such as luciferase makes a cellular process visible.)

Some of the results follow. Single values are uncertain here, since repeats match poorly.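 The human kidney-derived cells carry a stably integrated construct of eight TEAD-binding elements driving luciferase, read by luminescence in a drug-repurposing library screen. A compound counts as a hit when its signal is more than five robust Z scores above the plate mean.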

For `Cc1cn(CCCCN2CCN(c3cc(C(F)(F)F)nc(C(C)(C)C)n3)CC2)c(=O)nc1O`, the TEAD-luciferase reporter activity was inactive: 1.61 (compound concentration: 200 nM), inactive: -0.28 (compound concentration: 2 uM) and inactive: 3.53 (compound concentration: 10 uM).

As to `CCN(CC)CCOCC(COc1ccccc1OC)OCCN(CC)CC` (configuration not stated) [Cercainide], the TEAD-luciferase reporter activity is inactive: -1.81 (compound concentration: 200 nM) and inactive: -0.327 (compound concentration: 10 uM).

Turning to `CCN(CC)CCOCC(COc1ccccc1OC)OCCN(CC)CC` (configuration not stated), the TEAD-luciferase reporter activity (compound concentration: 2 uM) is inactive: 2.25.

`Clc1ccc(CCCOCCCN2CCCCC2)cc1` [pitolisant]: the TEAD-luciferase reporter activity is, setting by setting: (compound concentration: 200 nM) inactive: -0.188; (compound concentration: 2 uM) inactive: 3.01; (compound concentration: 10 uM) inactive: 1.73.

With `Cc1cc(N2CC=C(C(N)=O)CC2)c2cccc(-c3ccc(Cl)cc3Cl)c2n1`, the TEAD-luciferase reporter activity by setting is: (compound concentration: 200 nM) inactive: -1.4; (compound concentration: 2 uM) inactive: 0.967; (compound concentration: 10 uM) inactive: -0.817.

As for `CC(C)(C)NCC(O)COc1ccccc1-c1ccc(NN)nn1` (configuration not stated) [prizidilol], the TEAD-luciferase reporter activity was inactive: -0.715 (compound concentration: 200 nM), inactive: 1.78 (compound concentration: 2 uM) and inactive: 1.2 (compound concentration: 10 uM).

As to `O=C(Cc1ccc(C(=O)O)cc1)NC(c1ccccc1)c1ccccc1N1CCCCC1` (configuration not stated), the TEAD-luciferase reporter activity (compound concentration: 200 nM) is inactive: -0.849, the TEAD-luciferase reporter activity (compound concentration: 2 uM) is inactive: 0.719 and the TEAD-luciferase reporter activity (compound concentration: 10 uM) was inactive: 1.71.

For `CN(C)c1ccc(NC(=O)N(Cc2cccc(CN(C(=O)Nc3ccc(N(C)C)cc3)C3CCCCCC3)c2)C2CCCCCC2)cc1`, the TEAD-luciferase reporter activity by setting is: (compound concentration: 200 nM) inactive: 2.64; (compound concentration: 2 uM) inactive: 1.24; (compound concentration: 10 uM) inactive: 1.45.

In the case of `C=C1/C(=C\C=C2/CCC[C@]3(C)[C@@H]([C@H](C)/C=C/C=C/C(O)(CC)CC)CC[C@@H]23)C[C@@H](O)C[C@@H]1O` [Seocalcitol], the TEAD-luciferase reporter activity was inactive: -3.15 (compound concentration: 200 nM), inactive: -0.583 (compound concentration: 2 uM) and inactive: 1.69 (compound concentration: 10 uM).

In the case of `CN(c1c2c(c(O)c3ncccc13)C(=O)N(Cc1ccc(F)cc1)C2)S(C)(=O)=O`, the TEAD-luciferase reporter activity reads like this: (compound concentration: 200 nM) inactive: -0.609; (compound concentration: 2 uM) inactive: 0.0602; (compound concentration: 10 uM) inactive: -0.418.

For `Cn1cc(-c2ccc(=O)n(Cc3cccc(-c4ncc(OCCN5CCOCC5)cn4)c3)n2)cn1`, the TEAD-luciferase reporter activity is inactive: -0.266 (compound concentration: 200 nM), inactive: -0.926 (compound concentration: 2 uM) and inactive: 0.725 (compound concentration: 10 uM).

On to `COc1ccc(CN2CCCC23Cc2ccccc2CNC3=O)cc1` (configuration not stated), for which the TEAD-luciferase reporter activity by setting is: (compound concentration: 200 nM) inactive: -0.524; (compound concentration: 10 uM) inactive: 0.302.

As for `O=C(CCCN1CCC(O)(c2ccc(Br)cc2)CC1)c1ccc(F)cc1` [bromperidol], the TEAD-luciferase reporter activity reads like this: (compound concentration: 200 nM) inactive: -0.888; (compound concentration: 2 uM) inactive: -0.5; (compound concentration: 10 uM) inactive: 1.25.

On to `CCCCCCCC/C=C\CCCCCCCC(=O)Oc1ccc2c(c1)CC[C@@H]1[C@@H]2CC[C@]2(C)C(=O)CC[C@@H]12`, for which the TEAD-luciferase reporter activity by setting is: (compound concentration: 200 nM) inactive: 2.19; (compound concentration: 2 uM) inactive: -0.739; (compound concentration: 10 uM) inactive: -0.0603.

Regarding `O=P(O)(O)OCC(Cl)(Cl)Cl`, the TEAD-luciferase reporter activity (compound concentration: 200 nM) is inactive: -0.404, the TEAD-luciferase reporter activity (compound concentration: 2 uM) is inactive: 0.138 and the TEAD-luciferase reporter activity (compound concentration: 10 uM) is inactive: 1.2.

For the compound `O=C1CN(C(=O)c2cc(-c3cc(F)cc(Cl)c3)n(-c3ccc(F)c(Cl)c3)n2)CN1`, the TEAD-luciferase reporter activity was inactive: 0.269 (compound concentration: 200 nM), inactive: -0.545 (compound concentration: 2 uM) and inactive: -0.337 (compound concentration: 10 uM).

In the case of `Cn1cnc([N+](=O)[O-])c1Sc1nc(N)nc2nc[nH]c12`, the TEAD-luciferase reporter activity is, setting by setting: (compound concentration: 200 nM) inactive: -1.72; (compound concentration: 2 uM) inactive: 0.108; (compound concentration: 10 uM) inactive: 0.677.

As to `N#Cc1cccc(C(C(=O)NCC(c2ccccc2)c2ccccc2)N(CCc2c[nH]cn2)C(=O)c2ccccc2C(=O)c2ccccc2)c1` (configuration not stated), the TEAD-luciferase reporter activity is inactive: -1.51 (compound concentration: 200 nM), inactive: -0.121 (compound concentration: 2 uM) and inactive: 0.201 (compound concentration: 10 uM).

Turning to `CS(=O)(=O)Nc1ccc(Oc2ccc(F)cc2)s1`, the TEAD-luciferase reporter activity is, setting by setting: (compound concentration: 200 nM) inactive: -2.82; (compound concentration: 2 uM) inactive: 0.596; (compound concentration: 10 uM) inactive: -1.16.

On to `Cc1cn([C@@H]2C[C@@H](O)[C@H](CO)O2)c(=O)[nH]c1=O` [Telbivudine], for which the TEAD-luciferase reporter activity is inactive: -1.21 (compound concentration: 200 nM), inactive: 1.18 (compound concentration: 2 uM) and inactive: 0.306 (compound concentration: 10 uM).

For `CC(C(O)c1ccc(O)cc1)N1CCC(Cc2ccccc2)CC1` (configuration not stated) [Ifenprodil], the TEAD-luciferase reporter activity reads like this: (compound concentration: 200 nM) inactive: -1.2; (compound concentration: 10 uM) inactive: 0.46.

Take `CC(C(O)c1ccc(O)cc1)N1CCC(Cc2ccccc2)CC1` (configuration not stated) [Pharmaprojects No. 902]: the TEAD-luciferase reporter activity (compound concentration: 2 uM) was inactive: -1.43.

Turning to `C[C@H](C(=O)NS(C)(=O)=O)c1ccc(OS(=O)(=O)C(F)(F)F)cc1`, the TEAD-luciferase reporter activity (compound concentration: 200 nM) is inactive: -1.02, the TEAD-luciferase reporter activity (compound concentration: 2 uM) was inactive: -1.77 and the TEAD-luciferase reporter activity (compound concentration: 10 uM) is inactive: 0.935.

On to `C[C@H](C(=O)NS(C)(=O)=O)c1ccc(OS(=O)(=O)C(F)(F)F)cc1` [Ladarixin sodium], for which the TEAD-luciferase reporter activity (compound concentration: 2 uM) was inactive: 0.752.

For the compound `CC(C)=CCC/C(C)=C/CC/C(C)=C/CC/C=C(\C)CC/C=C(\C)CCC=C(C)C` [Squalene], the TEAD-luciferase reporter activity is, setting by setting: (compound concentration: 200 nM) inactive: 1.08; (compound concentration: 2 uM) inactive: -0.146; (compound concentration: 10 uM) inactive: 1.04.

Regarding `CC(=O)NC[C@@H]1CC(c2ccc(C3=CCN(C(=O)CO)CC3)cc2)=NO1`, the TEAD-luciferase reporter activity is inactive: -1.85 (compound concentration: 200 nM), inactive: 2.37 (compound concentration: 2 uM) and inactive: 0.29 (compound concentration: 10 uM).

Turning to `CC[C@@H]1[C@H](F)C(=O)N[C@@H]1COc1nccc2cc(C(N)=O)c(OC)cc12`, the TEAD-luciferase reporter activity runs as follows: (compound concentration: 200 nM) inactive: 1.87; (compound concentration: 2 uM) inactive: 0.998; (compound concentration: 10 uM) inactive: 3.15.

With `C=CC(=O)N1CCC(C2CCNc3c(C(N)=O)c(-c4ccc(Oc5ccccc5)cc4)nn32)CC1` (configuration not stated) [(¡À)-Zanubrutinib], the TEAD-luciferase reporter activity is inactive: -0.54 (compound concentration: 200 nM), inactive: -0.497 (compound concentration: 2 uM) and inactive: 0.292 (compound concentration: 10 uM).

With `COc1ccc([C@@H]2c3occc3C(=O)[C@H]3COC(=O)[C@@H]23)cc1OC`, the TEAD-luciferase reporter activity is inactive: -1.77 (compound concentration: 200 nM) and inactive: 3.06 (compound concentration: 10 uM).

As for `CCC(C/C=C/c1ccccc1)(c1ccc(Cl)cc1)N(C)C` (configuration not stated), the TEAD-luciferase reporter activity runs as follows: (compound concentration: 200 nM) inactive: -0.853; (compound concentration: 2 uM) inactive: -0.711; (compound concentration: 10 uM) inactive: 2.17.

Regarding `CCc1ccc(CSc2ccc(NS(=O)(=O)c3ccc(C)c(C(=O)OC)c3)cc2)cc1`, the TEAD-luciferase reporter activity reads like this: (compound concentration: 200 nM) inactive: -0.594; (compound concentration: 2 uM) inactive: -0.419; (compound concentration: 10 uM) inactive: -2.32.

Turning to `N#CC(=CC=Cc1ccc(O)c(O)c1)C(=O)NCc1ccccc1`, the TEAD-luciferase reporter activity runs as follows: (compound concentration: 200 nM) inactive: 1.06; (compound concentration: 2 uM) inactive: -1.29; (compound concentration: 10 uM) inactive: -0.00848.

Take `CN1C(=O)C(F)=C[C@]2(C)[C@H]3CC[C@]4(C)[C@@H](C(=O)NCc5nc6cccnc6[nH]5)CC[C@H]4[C@@H]3CC[C@@H]12`: the TEAD-luciferase reporter activity by setting is: (compound concentration: 200 nM) inactive: 0.337; (compound concentration: 2 uM) inactive: -0.29; (compound concentration: 10 uM) inactive: 0.0482.

As for `COc1cc(CN2CCCCC23Cc2ccccc2CNC3=O)ccc1F` (configuration not stated), the TEAD-luciferase reporter activity by setting is: (compound concentration: 200 nM) inactive: -0.619; (compound concentration: 10 uM) inactive: 2.8.

Take `Cc1ccc2c(c1)C(COC(=O)N[C@@H](CC(C)C)C(=O)O)c1cc(C)ccc1-2`: the TEAD-luciferase reporter activity (compound concentration: 200 nM) is inactive: 0.614, the TEAD-luciferase reporter activity (compound concentration: 2 uM) was inactive: -1.98 and the TEAD-luciferase reporter activity (compound concentration: 10 uM) was inactive: -0.745.

`O=C(CN1CCC(C(=O)c2ccc(F)cc2)CC1)c1ccc2ccccc2c1`: the TEAD-luciferase reporter activity was inactive: 0.626 (compound concentration: 200 nM), inactive: -0.633 (compound concentration: 2 uM) and inactive: -1.32 (compound concentration: 10 uM).
